Experimental data published in PMC11222469.
Results are given in words; binding and its absence hold for the method and conditions named. In cells and extracts the contact can be indirect. A yes stands for co-enrichment or nearness to the bait. Other partners may have been found.

The chains behind the UniProt entries cited, without tags or fusion partners.
UniProt Q9Y4B6: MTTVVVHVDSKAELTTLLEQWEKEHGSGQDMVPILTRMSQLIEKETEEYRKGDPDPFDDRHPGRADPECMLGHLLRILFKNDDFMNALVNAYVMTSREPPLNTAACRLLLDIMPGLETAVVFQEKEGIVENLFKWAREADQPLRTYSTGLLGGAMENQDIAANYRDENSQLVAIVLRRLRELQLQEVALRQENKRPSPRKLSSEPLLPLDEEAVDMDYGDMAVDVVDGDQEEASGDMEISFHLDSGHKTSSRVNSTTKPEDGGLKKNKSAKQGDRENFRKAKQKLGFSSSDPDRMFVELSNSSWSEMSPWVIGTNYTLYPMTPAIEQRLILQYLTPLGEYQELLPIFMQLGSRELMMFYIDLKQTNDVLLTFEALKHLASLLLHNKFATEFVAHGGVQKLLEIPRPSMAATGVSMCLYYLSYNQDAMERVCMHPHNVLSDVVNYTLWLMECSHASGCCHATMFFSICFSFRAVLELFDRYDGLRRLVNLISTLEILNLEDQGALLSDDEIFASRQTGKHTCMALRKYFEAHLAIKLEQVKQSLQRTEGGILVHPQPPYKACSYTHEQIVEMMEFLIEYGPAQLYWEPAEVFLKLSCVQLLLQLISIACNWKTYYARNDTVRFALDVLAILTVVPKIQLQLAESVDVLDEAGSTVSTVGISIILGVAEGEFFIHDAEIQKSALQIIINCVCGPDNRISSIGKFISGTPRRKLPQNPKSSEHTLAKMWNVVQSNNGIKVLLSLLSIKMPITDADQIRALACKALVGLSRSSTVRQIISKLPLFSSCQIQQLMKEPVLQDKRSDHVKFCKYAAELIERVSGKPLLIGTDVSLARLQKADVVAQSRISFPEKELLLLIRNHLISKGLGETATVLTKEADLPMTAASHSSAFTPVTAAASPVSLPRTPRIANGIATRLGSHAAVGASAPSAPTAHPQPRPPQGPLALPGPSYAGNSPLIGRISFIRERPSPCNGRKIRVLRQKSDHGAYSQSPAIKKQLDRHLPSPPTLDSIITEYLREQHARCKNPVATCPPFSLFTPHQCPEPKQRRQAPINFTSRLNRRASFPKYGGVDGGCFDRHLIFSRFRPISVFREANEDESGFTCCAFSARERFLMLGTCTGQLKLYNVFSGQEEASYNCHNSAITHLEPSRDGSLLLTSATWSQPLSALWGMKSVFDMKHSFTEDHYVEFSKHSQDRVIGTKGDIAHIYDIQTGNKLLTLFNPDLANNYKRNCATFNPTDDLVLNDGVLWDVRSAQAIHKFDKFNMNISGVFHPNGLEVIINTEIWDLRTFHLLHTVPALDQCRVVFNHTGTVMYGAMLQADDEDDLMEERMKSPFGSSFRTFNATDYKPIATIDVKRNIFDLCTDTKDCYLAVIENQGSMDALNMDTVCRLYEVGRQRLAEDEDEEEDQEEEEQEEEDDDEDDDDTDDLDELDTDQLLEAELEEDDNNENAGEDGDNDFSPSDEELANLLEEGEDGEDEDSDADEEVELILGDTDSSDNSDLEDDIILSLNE

Assays:
[1] = biological target: FLAG-tagged DCAF15 (DDB1- and Cul4-Associated Factor 15) (human) (UniProt Q66K64); experiment: affinity purification with mass spectrometry; FLAG-immunoprecipitants from HEK293T cells transiently over-expressing FLAG-DCAF15 against FLAG empty vector; NP-40 buffer; in-solution digestion, LC-MS/MS; n = 1 each
[2] = biological target: HA-tagged TurboID-DCAF15 (human) (UniProt Q66K64); experiment: proximity labelling; MV4-11 cells stably expressing HA-tagged TurboID-DCAF15, DMSO or 5 uM MLN4924 for 6 h, 50 uM biotin for final 2 h; streptavidin magnetic beads, NP-40 buffer; LC-MS/MS; n = 1 each

binding [1]: binds | binding [2]: binds
Substance: VprBP (from UniProt Q9Y4B6 1-1507)
